Data as given in PubChem BioAssay AID1259308 (NCATS, 2017)

Test: 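Genes whose loss raises luciferase production in HEK293 cells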 (primary screen)
Cells: human HEK293 embryonic kidney cells stably expressing firefly luciferase (HEK-CMV-Luc2-Hygro)
Reagent: single siRNA against human genes, 0.8 pmol siRNA per well
Timing: 72 h
Measured: 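Luciferase light (ONE-Glo) measured on one replicate plate set and viability (CellTiter-Glo) on the other, scaled to a negative control siRNA, with robust z-scores and luciferase per cell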
Reading the numbers: total luciferase, z-score: higher = more reporter protein produced
Rule for the call: 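Active when the median/MAD z-score for overall luciferase is greater than 3; a gene was taken forward for validation with new siRNAs if at least two of its three siRNAs passed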
Calls: active = raised luciferase; inactive = no rise
Shown is an unselected part of about 59,000 reagents. About 1,510 of them (2.6%) were called active. 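Calls use total luciferase alone and ignore viability, so some active siRNAs may act by altering cell number.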 Reagents against one gene are numbered here. Further read-outs or replicates are left out here.

SAP30 (Sin3A associated protein 30) #1 → total luciferase, z-score: -0.186; Call: inactive
SAP30 (Sin3A associated protein 30) #2 → total luciferase, z-score: -0.0653; Call: inactive
SAP30 (Sin3A associated protein 30) #3 → total luciferase, z-score: -0.393; Call: inactive
TSPAN11 (tetraspanin 11) #1 → total luciferase, z-score: -0.324; Call: inactive
TSPAN11 (tetraspanin 11) #2 → total luciferase, z-score: -0.938; Call: inactive
TSPAN11 (tetraspanin 11) #3 → total luciferase, z-score: 0.306; Call: inactive
PEF1 (penta-EF-hand domain containing 1) #1 → total luciferase, z-score: -0.912; Call: inactive
PEF1 (penta-EF-hand domain containing 1) #2 → total luciferase, z-score: -0.461; Call: inactive
PEF1 (penta-EF-hand domain containing 1) #3 → total luciferase, z-score: -0.988; Call: inactive
OR8B2 (olfactory receptor family 8 subfamily B member 2) #1 → total luciferase, z-score: -2.77; Call: inactive
OR8B2 (olfactory receptor family 8 subfamily B member 2) #2 → total luciferase, z-score: -0.146; Call: inactive
OR8B2 (olfactory receptor family 8 subfamily B member 2) #3 → total luciferase, z-score: -0.858; Call: inactive
NPBWR1 (neuropeptides B and W receptor 1) #1 → total luciferase, z-score: -0.981; Call: inactive
NPBWR1 (neuropeptides B and W receptor 1) #2 → total luciferase, z-score: 0.298; Call: inactive
NPBWR1 (neuropeptides B and W receptor 1) #3 → total luciferase, z-score: -0.457; Call: inactive
SLC29A1 #1 → total luciferase, z-score: -0.344; Call: inactive
SLC29A1 #2 → total luciferase, z-score: -1.97; Call: inactive
SLC29A1 #3 → total luciferase, z-score: 0.932; Call: inactive
H2BC18 (H2B clustered histone 18) #1 → total luciferase, z-score: 0.486; Call: inactive
H2BC18 (H2B clustered histone 18) #2 → total luciferase, z-score: 0.645; Call: inactive
H2BC18 (H2B clustered histone 18) #3 → total luciferase, z-score: -0.387; Call: inactive
TENM4 (teneurin transmembrane protein 4) #1 → total luciferase, z-score: 0.328; Call: inactive
TENM4 (teneurin transmembrane protein 4) #2 → total luciferase, z-score: -0.473; Call: inactive
TENM4 (teneurin transmembrane protein 4) #3 → total luciferase, z-score: 2.37; Call: inactive
SLC35F2 #1 → total luciferase, z-score: 0.484; Call: inactive
SLC35F2 #2 → total luciferase, z-score: -0.0303; Call: inactive
SLC35F2 #3 → total luciferase, z-score: -0.284; Call: inactive

Next part (4 carried over from the part before).
TENM4 (teneurin transmembrane protein 4) #3 → total luciferase, z-score: 2.37; Call: inactive
SLC35F2 #1 → total luciferase, z-score: 0.484; Call: inactive
SLC35F2 #2 → total luciferase, z-score: -0.0303; Call: inactive
SLC35F2 #3 → total luciferase, z-score: -0.284; Call: inactive
PAK5 (p21 (RAC1) activated kinase 5) #1 → total luciferase, z-score: -0.242; Call: inactive
PAK5 (p21 (RAC1) activated kinase 5) #2 → total luciferase, z-score: -0.0917; Call: inactive
PAK5 (p21 (RAC1) activated kinase 5) #3 → total luciferase, z-score: -1.12; Call: inactive
MTA3 (metastasis associated 1 family member 3) #1 → total luciferase, z-score: -0.0244; Call: inactive
MTA3 (metastasis associated 1 family member 3) #2 → total luciferase, z-score: 1.17; Call: inactive
MTA3 (metastasis associated 1 family member 3) #3 → total luciferase, z-score: -0.0346; Call: inactive
MTA3 (metastasis associated 1 family member 3) #4 → total luciferase, z-score: 0.64; Call: inactive
MTA3 (metastasis associated 1 family member 3) #5 → total luciferase, z-score: 0.545; Call: inactive
MTA3 (metastasis associated 1 family member 3) #6 → total luciferase, z-score: -0.565; Call: inactive
OSTCP1 (oligosaccharyltransferase complex subunit pseudogene 1) #1 → total luciferase, z-score: 0.711; Call: inactive
OSTCP1 (oligosaccharyltransferase complex subunit pseudogene 1) #2 → total luciferase, z-score: -0.112; Call: inactive
OSTCP1 (oligosaccharyltransferase complex subunit pseudogene 1) #3 → total luciferase, z-score: -0.8; Call: inactive
ADAMTSL2 (ADAMTS like 2) #1 → total luciferase, z-score: -0.72; Call: inactive
ADAMTSL2 (ADAMTS like 2) #2 → total luciferase, z-score: 0.506; Call: inactive
ADAMTSL2 (ADAMTS like 2) #3 → total luciferase, z-score: 1.44; Call: inactive
